# Data: PubChem BioAssay AID256 (DTP/NCI, 2004)
# The list shows only some results of the screen, not a fair sample: it covers a few groups of compounds. Other doses and runs of a compound may be missing. T/C: endpoint of the treated group in % of that of the vehicle group. Some doses have a count of surviving animals in place of a T/C: the source holds a T/C of zero for them, seemingly a mark for toxic or unscored doses. Counts of survivors are from the toxicity check (mostly the fifth day) where no day follows; animals may have died later. Schedules are NCI's codes, taken here to give the interval after Q, in days (D) or hours (H), and the number of doses after X. Some schedules carry Z or #; the key to these is not given. For survival time, the PubChem record calls one and a half times the control and up active, and a quarter to a half above the control has no call in these data; cut-offs in other NCI protocols can differ. Some doses were run more than once; the results are listed from low to high. Some entries show no survivor count and are marked so; the dose need not have been tolerated. Some T/C values are followed by the survivors on the day toxicity was checked, most often the fifth; without a count or a note in brackets, all were alive then.
# Test system: CD2F1 mice, L1210 leukemia ip, survival T/C
# Test: NCI In Vivo Anticancer Drug Screen. Data for tumor model L1210 Leukemia (intraperitoneal) in CD2F1 (CDF1) mice
# Details: higher T/C = longer survival
# In short: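 Read-out first: treated-group measurement over vehicle-control measurement, expressed as a ratio. Animals bore a transplanted tumor line and were dosed with compound or vehicle.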
# [1] = T/C endpoint: mean survival time, dose: 100.0 mg/kg/injection, schedule: Q04DX003 (ip), vehicle: saline with Tween-80
smiles,measurement,setting,value
N#CN(CCCl)N=O,T/C,"T/C endpoint: median survival time, dose: 3.12 mg/kg/injection, schedule: Q01DX001 (ip), vehicle: water",101 % of control
same,T/C,"T/C endpoint: median survival time, dose: 6.25 mg/kg/injection, schedule: Q01DX001 (ip), vehicle: water",111 % of control
same,T/C,"T/C endpoint: median survival time, dose: 12.5 mg/kg/injection, schedule: Q01DX001 (ip), vehicle: water",106 % of control
same,T/C,"T/C endpoint: median survival time, dose: 25.0 mg/kg/injection, schedule: Q01DX001 (ip), vehicle: water",105 and 118 % of control
same,T/C,"T/C endpoint: median survival time, dose: 50.0 mg/kg/injection, schedule: Q01DX001 (ip), vehicle: water",116 and 134 % of control
same,T/C,"T/C endpoint: median survival time, dose: 100.0 mg/kg/injection, schedule: Q01DX001 (ip), vehicle: water",121 [5 of 6 alive] and 168 % of control
same,T/C,"T/C endpoint: median survival time, dose: 200.0 mg/kg/injection, schedule: Q01DX001 (ip), vehicle: water",128 % of control
NC1CCCCC1.O=P(O)(N(CCCl)CCCl)N1CCCCC1,T/C,"T/C endpoint: mean survival time, dose: 128.0 mg/kg/injection, schedule: Q01DX Z (ip), vehicle: saline",113 % of control
same,survivor count,"T/C endpoint: mean survival time, dose: 256.0 mg/kg/injection, schedule: Q01DX Z (ip), vehicle: saline",1 of 6
same,survivor count,"T/C endpoint: mean survival time, dose: 512.0 mg/kg/injection, schedule: Q01DX Z (ip), vehicle: saline",0 of 6
O=[N+]([O-])c1cc(Cl)cc([N+](=O)[O-])c1O,T/C,"T/C endpoint: mean survival time, dose: 25.0 mg/kg/injection, schedule: Q04DX003 (ip), vehicle: saline with Tween-80",97 % of control
same,T/C,"T/C endpoint: mean survival time, dose: 50.0 mg/kg/injection, schedule: Q04DX003 (ip), vehicle: saline with Tween-80",97 % of control
same,T/C,[1],94 % of control
same,survivor count,[1],1 of 3
same,survivor count,"T/C endpoint: mean survival time, dose: 200.0 mg/kg/injection, schedule: Q04DX003 (ip), vehicle: saline with Tween-80",1 of 3
same,survivor count,"T/C endpoint: mean survival time, dose: 400.0 mg/kg/injection, schedule: Q04DX003 (ip), vehicle: saline with Tween-80",0 of 3
CCCCCCC(C)N(CC)CCO.O=[N+]([O-])c1cc([N+](=O)[O-])c(O)c([N+](=O)[O-])c1,T/C,"T/C endpoint: mean survival time, dose: 75.0 mg/kg/injection, schedule: Q01DX001 (ip), vehicle: other",96 % of control
same,T/C,"T/C endpoint: mean survival time, dose: 150.0 mg/kg/injection, schedule: Q01DX001 (ip), vehicle: other",100 % of control [4 of 6 alive]
same,survivor count,"T/C endpoint: mean survival time, dose: 300.0 mg/kg/injection, schedule: Q01DX001 (ip), vehicle: other",0 of 6
Cc1cc([N+](=O)[O-])ccc1[N+](=O)[O-],T/C,"T/C endpoint: mean survival time, dose: 100.0 mg/kg/injection, schedule: Q04DX003 (ip), vehicle: other",93 % of control [survivor count not shown]
